In this test the target is Cnn fragment Q403-H608 containing the WT PReM domain (yeast two-hybrid bait and prey) (Drosophila melanogaster) (UniProt P54623). Briefly: two-hybrid; baits and preys both Cnn Q403-H608 (WT, LZA or 10A); pPC86-AN and pPC97-AN vectors, yeast strains Y8800 and Y8930; growth on media selecting for an interaction.

These are yes or no findings as the source states them, for the method shown. Some entries that bind do so weakly or less than the wild type.

B1: Cnn fragment Q403-H608 containing the WT PReM domain (yeast two-hybrid bait and prey) (domain or fragment, UniProt P54623-2 403-608)
chain: QLQTEVKKKTANLQNLVNKELWEKNREVERLTKLLANQQKTLPQISEESAGEADLQQSFTEAEYMRALERNKLLQRKVDVLFQRLADDQQNSAVIGQLRLELQQARTEVETADKWRLECVDVCSVLTNRLEELAGFLNSLLKHKDVLGVLAADRRNAMRKAVDRSLDLSKSLNMTLNITATSLADQSLAQLCNLSEILYTEGDASH
B1: the binding result is “binds”.
